This passage reports cell number change and AC50 results from PubChem BioAssay AID2685 (National Center for Advancing Translational Sciences (NCATS), 2010).

Some of the results follow. Further columns of the screen follow, without active or inactive calls. Most of these compounds were active or inconclusive in the main read-out, so they are no random draw. Potencies come from curve fits of mixed quality, noted in brackets.

The experiment in a line: qHTS Assay for Lipid Storage Modulators in Drosophila S3 Cells.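 On cell number change: cells counted by Cell Tracker Red CMTPX staining in the red channel.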 The conditions noted are these: BODIPY lipid droplet fluorescence, 18-24 h; for cell number change: measured here: cell count max response, cells fed with added oleic acid. An outline of the steps:
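Drosophila S3 cells loaded with oleic acid (400 uM, as added) and compounds at several concentrations; lipid droplets imaged by 488-nm laser-scanning cytometry, 500–530 nm intensity and object ratio to cell channel. Percent activity normalized to 20 uM Triacsin C.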
For orientation: Quantitative high-throughput screening tests each substance at several concentrations.

Setting [1] is: measured here: lipid fluorescence (Fed channel) AC50, cells fed with added oleic acid.
[2] abbreviates: measured here: cell number channel AC50, cells fed with added oleic acid.

Turning to `COc1ccccc1CNC(=O)C1(c2ccc(Cl)cc2)CC1`, the cell number change was determined as 26.9%. The AC50 under setting [1] was 13 µM [rising, single point].
As for `CC(C)CC1NC(=O)N(CC(=O)c2ccc3c(c2)OCCO3)C1=O` (configuration not stated), the cell number change worked out at 1.16%. Besides, the half-maximal activity concentration (AC50) under setting [1] is 29.1 µM [rising, single point].
Take `O=C(COc1ccc(Cl)cc1Cl)NC1CCSC1=O` (configuration not stated): the cell number change was 34.4%. Under setting [2], the AC50 was 1.46 µM [rising, full curve, poor fit]. For the same compound, the AC50 under setting [1] was 29.1 µM [rising, single point].
`COCCNC(=O)c1ccc(N2CC3CC(C2)c2cccc(=O)n2C3)c(NC(=O)c2cc(OC)cc(OC)c2)c1` (configuration not stated): the AC50 under setting [1] is 0.116 µM [falling, single point].
Regarding `CC(C)(C)C(=O)CSc1nc2c(c(-c3cccs3)c1C#N)CCC2`, the cell number change came to 25.6%. Moreover, the concentration at half-maximal activity (AC50) under setting [1] is 1.64 µM [rising, partial curve].
For the compound `COc1ccccc1CNS(=O)(=O)c1ccc2c(c1)CC(C)N2C(=O)C1CC1` (configuration not stated), the cell number change is -27%. Moreover, the half-maximal activity concentration (AC50) under setting [1] is 29.1 µM [falling, single point].
For the compound `CC(=O)N1Cc2ccccc2CC1C(=O)NCc1ccccc1F` (configuration not stated), the cell number change was determined as 9.13%. For the same compound, under setting [1], the concentration at half-maximal activity (AC50) is 6.51 µM [rising, partial curve, poor fit].
For `COc1ccc2occ(NC(C)=O)c2c1`, the cell number change is 6%. Also, under setting [1], the AC50 is 0.517 µM [rising, single point].
For the compound `COc1ccccc1-c1csc2ncnc(Sc3nnnn3C)c12`, the cell number change worked out at 10.9%. For the same compound, under setting [1], the half-maximal activity concentration (AC50) is 20.6 µM [falling, single point].
Take `Cc1ccc(C)c(C(=O)CSc2nnnn2-c2cccnc2)c1`: the cell number change was 23.8%. Besides, under setting [1], the half-maximal activity concentration (AC50) was 0.103 µM [rising, full curve].
Take `Cc1ccc(N=c2c([N+](=O)[O-])nn(-c3ccc(Cl)cc3)n2O)cc1C`: the cell number change is -78.6%. Moreover, the AC50 under setting [2] was 1.64 µM [falling, partial curve]. Moreover, the AC50 under setting [1] was 1.16 µM [falling, partial curve].
`O=C(NCCc1ccc(Cl)cc1)c1cccc(N2CCCC2=O)c1`: the cell number change came to 7.96%. For the same compound, the concentration at half-maximal activity (AC50) under setting [1] is 29.1 µM [falling, single point].
As for `CCOc1ncccc1C(=O)OCc1cn2cc(Cl)ccc2n1`, the AC50 runs as follows: under setting [2], 6.51 µM [rising, single point]; under setting [1], 0.13 µM [rising, full curve, poor fit].
Consider `O=C(NCc1ccco1)c1cccs1`, for which the cell number change was -12.4%.
For the compound `CCOC(=O)Cn1c(C)[n+](C)c2cc(Cl)c(Cl)cc21`, the cell number change was -81.6%. Also, the half-maximal activity concentration (AC50) under setting [2] was 29.1 µM [falling, single point]. Moreover, the AC50 under setting [1] is 29.1 µM [rising, single point].
In the case of `Brc1cccc(-c2nnc3n2CCCCC3)c1`, the cell number change worked out at 9.77%. Also, the AC50 under setting [1] is 29.1 µM [rising, single point].
With `CN(C)CCCN(C(=O)c1ccc2c(c1)CCCC2)c1nc2c(F)cccc2s1`, the cell number change is -26.1%. Besides, the AC50 under setting [1] was 16.4 µM [falling, single point].
On to `CC(C)c1nc2ccccc2c2nnc(SCC(=O)NCc3ccco3)n12`, for which the cell number change was 2.51%. For the same compound, the AC50 under setting [1] was 2.31 µM [rising, partial curve].
As to `Cc1ccc(C(=O)NCCCNC(=O)COc2ccc(Cl)cc2)cn1`, the cell number change stood at 15.2%.
`COc1ccc(C2CC(=O)C=C(NCc3ccccc3)C2)cc1` (configuration not stated): under setting [1], the AC50 is 0.206 µM [rising, full curve, poor fit].
As to `Cc1cnc(C(=O)OCC(=O)N=c2sccn2Cc2ccccc2Cl)cn1`, the cell number change turned out to be 30.3%. The concentration at half-maximal activity (AC50) under setting [1] was 0.112 µM [falling, full curve, poor fit].
As to `O=C(NCc1ccccc1)C1(c2cccc(F)c2)CCCC1`, the AC50 under setting [1] is 1.84 µM [rising, single point].
Consider `C=CCNC(=O)c1cc2c(=O)n3ccccc3nc2s1`, for which, under setting [1], the AC50 was 0.58 µM [falling, single point].
On to `COc1cccc(C(=O)C2CCCN(C(=O)CCc3scnc3C)C2)c1` (configuration not stated), for which the cell number change was -31.6%. The concentration at half-maximal activity (AC50) under setting [2] is 20.6 µM [falling, single point]. In addition, the half-maximal activity concentration (AC50) under setting [1] is 11.6 µM [falling, partial curve].
Turning to `COc1ccc(CN2CCN(Cc3nc4ccccc4s3)CC2CCO)c(C)c1C` (configuration not stated), the cell number change came out at 19.6%. Also, under setting [1], the half-maximal activity concentration (AC50) was 0.82 µM [rising, single point].
In the case of `CC(OC(=O)c1cccc(S(=O)(=O)N2CCCC2)c1)C(=O)c1ccccc1` (configuration not stated), the cell number change was -16.4%. Also, the AC50 under setting [1] is 29.1 µM [falling, single point].
Consider `C=CCn1cn[nH]c1=S`, for which the cell number change is -26.8%. Besides, the AC50 under setting [1] is 22.4 µM [falling, single point].
As for `Cc1oc(-c2ccccc2F)nc1CS(=O)(=O)CC(=O)N1CCCCCC1`, the cell number change was determined as 44.1%. Besides, the half-maximal activity concentration (AC50) under setting [2] was 20.6 µM [rising, single point]. Also, the half-maximal activity concentration (AC50) under setting [1] is 29.1 µM [rising, partial curve, poor fit].
As for `O=C(N/N=C/c1ccccn1)c1cccc(NC(=O)c2ccccc2Cl)c1`, the cell number change stood at 5.79%.
In the case of `COc1ccc(C2=NS(=O)(=O)N(C)C(C(=O)Nc3cc(OC)c(OC)c(OC)c3)=C2)cc1`, the cell number change is -19.5%.
With `COc1ccc(CNC(=O)C(C#N)c2nc3ccccc3nc2N2CCCC2)cc1` (configuration not stated), the cell number change is -28.4%. Moreover, the concentration at half-maximal activity (AC50) under setting [1] was 29.1 µM [falling, single point].
Regarding `Cc1sc2ncnc(N3CCC(C(=O)Oc4cccc(Cl)c4Cl)CC3)c2c1C`, the cell number change was -43.1%. Besides, the concentration at half-maximal activity (AC50) under setting [2] is 20.6 µM [falling, single point]. For the same compound, the half-maximal activity concentration (AC50) under setting [1] was 7.31 µM [falling, single point].
Regarding `NC(=O)CC(NC(=O)c1ccccc1)c1ccc(N2CCc3ccccc3C2)c([N+](=O)[O-])c1` (configuration not stated), the cell number change is -30.7%. The AC50 under setting [2] was 23.1 µM [falling, single point].
For the compound `CSC(=NC#N)N1CCN(C(c2ccccc2)c2ccccc2)CC1`, the cell number change is 2.7%. Further, the AC50 under setting [1] was 29.1 µM [rising, single point].
Take `Cc1ccc(C)c(C(=O)CCC(=O)N2CCN(c3cccc(C(F)(F)F)c3)CC2)c1`: the cell number change amounted to 10.4%. For the same compound, under setting [1], the concentration at half-maximal activity (AC50) was 29.1 µM [falling, single point].
In the case of `O=C(c1cc(COc2ccc(F)cc2F)on1)N1CCN(C(=O)c2ccco2)CC1`, the cell number change is -3.68%. The concentration at half-maximal activity (AC50) under setting [1] is 0.58 µM [falling, single point].
Regarding `CC(Sc1ccc(S(=O)(=O)N2CCCC2)cn1)C(N)=O` (configuration not stated), the cell number change turned out to be 3.26%.
As for `O=C(CSc1ncn[nH]1)NCc1ccc(Cl)cc1`, the cell number change stood at 9.91%. In addition, under setting [1], the AC50 was 2.91 µM [falling, single point].
For the compound `Cc1[nH]c2ccccc2c1SCC(=O)Nc1nccs1`, the cell number change turned out to be 2.04%. Also, under setting [1], the AC50 is 0.116 µM [rising, full curve, poor fit].
For the compound `Cc1nnc(SCC(=O)N2CCc3ccccc32)n1-c1ccccc1`, the cell number change is 8.94%. The half-maximal activity concentration (AC50) under setting [1] was 29.1 µM [rising, single point].

What is called AC50 is the concentration giving half of the maximal activity seen.
